Measurements as given in PMC6384901 (Molecules, 2019).

Test: general procedure: Fmoc solid-phase peptide synthesis; Rink amide resin; HBTU/HOBt/NMM
Conditions: whole synthesis, RP-HPLC on analytical C18 column, monitored at 214 nm

Substance	final HPLC purity (scale 0.1 mmol) [%]	other results
PEPTIDE1{[ac].K.K.[AcK].K.M.[am]}|CHEM1{[Succinoyl]}$PEPTIDE1,CHEM1,2:R3-1:R1|PEPTIDE1,CHEM1,5:R3-1:R2$$$V2.0	>95	
PEPTIDE1{[ac].K.K.[AcK].K.M.[am]}|PEPTIDE2{G}|PEPTIDE3{G}|CHEM1{[Suberoyl]}$PEPTIDE1,PEPTIDE2,2:R3-1:R2|PEPTIDE1,PEPTIDE3,5:R3-1:R2|PEPTIDE2,CHEM1,1:R1-1:R1|PEPTIDE3,CHEM1,1:R1-1:R2$$$V2.0	>95	
PEPTIDE1{[ac].K.K.[AcK].K.[am]}|PEPTIDE2{G}|PEPTIDE3{G}|CHEM1{[Suberoyl]}$PEPTIDE1,PEPTIDE2,2:R3-1:R2|PEPTIDE1,PEPTIDE3,5:R3-1:R2|PEPTIDE2,CHEM1,1:R1-1:R1|PEPTIDE3,CHEM1,1:R1-1:R2$$$V2.0		final HPLC purity (scale of the general procedure 0.1 mmol (5, 6), 0.05 mmol (7)): >95%
PEPTIDE1{[ac].K.R.[MyrK].K.T.[am]}|CHEM1{[Suberoyl]}$PEPTIDE1,CHEM1,2:R3-1:R1|PEPTIDE1,CHEM1,5:R3-1:R2$$$V2.0		final HPLC purity (scale 0.05 mmol): >95%

Strings that start with PEPTIDE1 are HELM notation: dots part the residues, brackets hold end groups and non-standard residues. The same purity stands for every peptide and may come from a single statement.
